From the supplement of paper PMC12578635
This is one part of the list. No stated cut-off is given here; in the data, active = 150% or more and inactive = the rest. Most values come without repeats; read them as rough.

What follows are molecules tested on Staphylococcus aureus JE2-lux inside RAW 264.7 macrophages (assay: intracellular bacterial bioluminescence relative to DMSO vehicle; higher = higher intracellular bacterial metabolic activity). Conditions: 10 µM; treatment time 4 h; gentamicin 50 µg/ml.

Intracellular bacterial bioluminescence, inactive:
COc1ccc(CCNc2nc(C(F)(F)F)nc3c(C)cc(C)cc23)cc1OC 83.9%, CCOC(=O)c1sc2nc(Cc3ccc(OC)c(OC)c3)[nH]c(=O)c2c1C 80.7%, Cc1ccc2[nH]c(=O)c(N3CCOCC3)c(-c3ccccc3)c2c1 77.6%, O=C(NCc1ccco1)c1ccc2c(c1)C(=O)c1ccccc1-2 121%, Cc1cc(NC(=O)CSC2=NS(=O)(=O)c3cc(Cl)ccc3N2)no1 126%, CNc1nc2c(c(=O)n(C)c(=O)n2C)n1CC(O)COc1ccccc1C (stereo not given) 116%, COc1ccccc1N1CCN(c2nccn3nc(-c4ccc(C)c(C)c4)cc23)CC1 76.7%, CCOCCOC(=O)c1ccc2c(c1)N(Cc1ccncc1)C(=O)c1ccccc1S2 0.675%, CCOC(=O)CCc1c(C)[nH]c2c(C(=O)Nc3ccccc3C)cnn2c1=O 113%, Clc1cccc(NCc2nnc3n2CCCCC3)c1 60.5%, O=C(/C=C1/Nc2ccccc2NC1=O)Nc1cccc(C(F)(F)F)c1 5.37%, CCC(SC1=Nc2ccccc2C2=NC(C)C(=O)N12)C(=O)Nc1cc(F)ccc1F (stereo not given) 102%, CCc1cc(Sc2nnc(NC(C)=O)s2)n2ncnc2n1 74.5%, CNC(=O)c1ccsc1NC(=O)CN1C(=O)CCC1=O 48.9%, COc1ccccc1NC(=O)C1=C(C)NC(=O)NC1c1ccc(Cl)cc1Cl (stereo not given) 65.9%, Cc1ccc2nc(NCCCNS(=O)(=O)c3ccc4c(c3)OCCO4)c(C#N)cc2c1 69.5%, O=C(Nc1ccc2scnc2c1)c1cc2c(ccc3ccccc32)oc1=O 102%, Cc1cnc(NC(=O)CSc2ncnc3c(-c4ccc(F)cc4)nsc23)s1 91.1%, COc1ccc(Cc2nc3c4c(C)c(C)n(-c5ccc(C)cc5)c4ncn3n2)cc1 103%, Cc1cc(N2CCN(C(=O)c3ccc(=O)n(C)c3)CC2)nc(C)n1 118%, O=C(CN1C(=O)c2ccccc2C1=O)Nc1nc2c(s1)CSc1ccccc1-2 20.2%, COc1ccc(C(=O)N2CCN(c3nc(C)c(C)c(=O)[nH]3)CC2)cc1 109%, COc1ccc(-c2nsc3c(SCC(C)=O)ncnc23)cc1 115%, CCOc1ccc(CC(=O)Oc2cc(C)[nH]c(=O)c2[N+](=O)[O-])cc1 126%, COc1ccc(Br)cc1CNC(=O)c1nccn1Cc1ccccc1C 15.6%, Cc1ccc([N+](=O)[O-])cc1N1C(=O)CC(Nc2ccc(N3CCOCC3)cc2)C1=O (stereo not given) 118%, Cc1cc2c(=O)n(CC(=O)NC(c3cccs3)C(C)C)cnc2s1 (stereo not given) 89.5%, C#CCn1/c(=N/C(=O)CN2C(=O)CCC2=O)sc2c3ccccc3ccc21 117%, COc1ccc(Nc2nc(C)c3nc(C)n(-c4ccc(OC)c(Cl)c4)c3n2)cc1Cl 87.6%, Cc1ccc(C)c(C(=O)Nc2nc3c(s2)COc2ccccc2-3)c1 66.3%, CN1C(=O)c2cccc(NC(=O)c3ccc(Br)s3)c2C1=O 63.3%, Cc1ccc(-c2nc(N)n(C(=O)C(c3ccccc3)c3ccccc3)n2)cc1C 98.8%, Cc1ccc(S(=O)(=O)N(C)c2cncc(C(=O)NC(C)CCc3ccccc3)c2)cc1 (stereo not given) 67.1%, C=CCn1c(NCCO)nc2sc3c(c2c1=O)CCC3 90.2%, O=C1NC(=S)N/C1=C\c1cc([N+](=O)[O-])ccc1OCc1ccccc1Cl 96.7%, O=C(NCc1ccccc1Cl)C1CCCN(c2nccnc2Oc2ccccc2)C1 (stereo not given) 69.4%, O=C(CCn1cnc2onc(-c3cc(F)cc(F)c3)c2c1=O)NCc1cccc(F)c1 133%, COc1ccc(C(=O)C2CCN(C(=O)Nc3ccccc3F)CC2)cc1 70.6%, O=C(Cn1cc(S(=O)(=O)c2ccccc2)c(=O)c2cc(F)ccc21)Nc1cccc(Cl)c1 87.4%, CCc1cc(=O)n2ncc(C(=O)Nc3cc(Cl)ccc3C)c2[nH]1 117%, CC(C)(C)NC(=O)CCn1c(-c2cccnc2)cc2cccnc21 95.1%, COc1ccc(OC)c(/C=N/NC(=O)CNC(=O)c2c(F)cccc2Cl)c1 77.1%, COc1ccccc1/N=c1\oc2ccc(Br)cc2cc1C(=O)NC(C)=O 112%, COCCn1/c(=N/C(=O)c2ccno2)sc2cc(S(C)(=O)=O)ccc21 114%, CCNc1nc(NCC)n2c(SCC(=O)Nc3ccc([N+](=O)[O-])cc3)nnc2n1 89.7%, COc1ccc(C2C(C#N)=C(SC)NC3=C2C(=O)CC(C)(C)C3)cc1 (stereo not given) 77.3%, CCN1CCN(c2nc3ncn(CC(=O)N4CCN(c5ccc(F)cc5)CC4)c(=O)c3s2)CC1 105%, O=C(Cn1c(=O)n2nc(-c3ccc(F)cc3)nc2c2ccccc21)N1CCN(c2ccc(F)cc2)CC1 102%, COC(=O)c1ccc(NC(=O)CSc2nc(-c3ccccc3C)ns2)cc1 66.4%, Cc1ccnc(SCc2cc(=O)c(OC(=O)c3c(F)cccc3Cl)co2)n1 87.4%, Cc1cc(OCC(=O)Nc2ccc3c(c2)nc2n3CCN(C(C)C)C2)ccc1Cl 41.9%, Cc1sc(NC(=O)C2(C)CCCO2)nc1-c1cc2ccccc2oc1=O (stereo not given) 91.1%, Cc1ccc(NC(=O)Cn2cnc3c(cnn3-c3ccc(F)cc3)c2=O)c(C)c1 94.7%, COC(=O)COc1cccc2c(=O)n(CC(=O)Nc3ccc([N+](=O)[O-])cc3)ccc12 43.9%, O=C(Nc1c(C(=O)Nc2ccccc2F)oc2ccccc12)c1ccc(Br)o1 82.7%, CCOc1ccc2ccccc2c1C(=O)Nn1cnc2c(cnn2-c2ccccc2)c1=O 140%, COC(=O)c1ccccc1NC(=O)CSc1nnc(CSc2nc(C)cc(C)n2)o1 112%, Cc1cc(C)c2c(n1)sc1c(=O)n(-c3cccc(C(=O)Nc4ccc(C(C)C)cc4)c3)cnc12 84.9%, Clc1ccccc1CCNc1ncnc2oc3c(c12)CCCC3 123%, COC(=O)CSC1=C(C#N)C(c2ccccc2)C(C(=O)Nc2ccccc2OC)=C(C)N1 (stereo not given) 83.8%, O=C1CCc2cc(S(=O)(=O)Nc3ccccc3N3CCOCC3)ccc2N1 105%, Cc1ccc(-c2cnnc(-n3nc(C)c4c3NC(=O)CC4c3ccc(C)c(C)c3)n2)cc1 (stereo not given) 121%, COc1ccc(CCN2C(=O)CC(Nc3ccc(N(C)C)cc3)C2=O)cc1OC (stereo not given) 51.4%, Cc1ccc(Cn2c(Sc3nnc(C)s3)nc3c2c(=O)[nH]c(=O)n3C)cc1 113%, CCOc1ccccc1/C=N/NC(=O)CNC(=O)c1cccs1 77.6%, Cc1nc(-c2ccccc2)c(CC(=O)NC(c2ccccc2)c2cccnc2)s1 (stereo not given) 93.5%, Cc1cc(=O)n2nc(CN(c3ccc(Cl)cc3)S(=O)(=O)c3ccccc3)nc2[nH]1 122%, CCOC(=O)c1ccc(Nc2nnc3nc(C)cc(C)n23)cc1 14.4%, CCOc1ccc(-c2nc3c(c(SCC(N)=O)n2)Cc2cccc(C)c2O3)cc1 95.6%, CCCc1cc(=O)[nH]c(SCC(=O)NCc2ccc3c(c2)OCO3)n1 85.9%, CCCc1cc(=O)[nH]c2nnc(SCC(=O)N(C)c3ccccc3)n12 123%, CCc1ccc2c(c1)c1nnc(SCC(=O)c3ccc(F)cc3)nc1n2C 81.7%, Cc1cccc(C2CCCN2C(=O)c2cc(C(C)C)on2)c1 (stereo not given) 114%, CCc1ccc2c(c1)c1nnc(SCC(=O)Nc3nnc(C)s3)nc1n2C 109%, CCOCc1nnc(NC(=O)c2csc(C(C)=O)c2)s1 132%, CCOC(=O)c1oc2cc(O)cc(O)c2c(=O)c1-c1ccc(OC)c(OC)c1 109%, CCCCOc1ccc(-c2cc3c(N4CCN(c5ccc(OC)cc5)CC4)nccn3n2)cc1 93.9%, CCc1ccccc1-n1ccn(CC(=O)c2ccc(F)cc2)c(=O)c1=O 108%, Nc1c(C(=O)c2ccc(Br)cc2)sc2nc3c(cc12)CCC3 119%, O=S(=O)(c1cc(-c2noc(C3CC3)n2)cs1)N1CCn2c1nc1ccccc12 90%, COc1cccc2c1Oc1nc(-c3ccccc3)[nH]c(=S)c1C2 98%, CCn1nc(-n2cnnc2)c(NS(=O)(=O)c2ccc(C3CCCCC3)cc2)c1C 108%, COc1ccccc1NC(=O)N1CCCC(C(=O)NCc2ccc(F)cc2)C1 (stereo not given) 111%, Cc1cc2cc(CCNC(=O)c3ccc(S(=O)(=O)N4CCOCC4)cc3)c(=O)[nH]c2cc1C 86.8%, O=C(CSc1nc(-c2ccccc2Cl)ns1)Nc1ccc2c(c1)OCO2 97.3%, Cc1nc2c(ccc3nc(NC(=O)c4ccco4)sc32)s1 105%, O=C(CNc1ccc(S(=O)(=O)C(F)(F)F)cc1[N+](=O)[O-])NC1CCS(=O)(=O)C1 (stereo not given) 106%, CCOc1ccccc1NC(=O)CC1Sc2ccc(C(F)(F)F)cc2NC1=O (stereo not given) 105%, Cc1ccc(Nc2nc(Nc3ccc4c(c3)OCO4)nc(N3CCOCC3)n2)cc1C 63.1%, COCCn1c2ccccc2n2c(=O)n(Cc3ccc(F)cc3)nc12 98%
